Taken from: PubChem BioAssay AID1259308 (NCATS, 2017)
In all, the deposit lists about 59,000 reagents; below is a part drawn at random. In the full data, about 1,510 (2.6%) are marked active. 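Calls use total luciferase alone and ignore viability, so some active siRNAs may act by altering cell number.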 Entries without a mark were called inactive. Not all columns of the deposit are shown.

Assay: 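Genes whose loss raises luciferase production in HEK293 cells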 (primary screen)
Cells: human HEK293 embryonic kidney cells stably expressing firefly luciferase (HEK-CMV-Luc2-Hygro)
Reagents: single siRNA against human genes, 0.8 pmol siRNA per well
Duration: 72 h
Measurement: 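Luciferase light (ONE-Glo) measured on one replicate plate set and viability (CellTiter-Glo) on the other, scaled to a negative control siRNA, with robust z-scores and luciferase per cell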
Reading the numbers: total luciferase, z-score and total luciferase, % of control: higher = more reporter protein produced
Call rule: 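Active when the median/MAD z-score for overall luciferase is greater than 3; a gene was taken forward for validation with new siRNAs if at least two of its three siRNAs passed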
Meaning of the calls: active = raised luciferase; inactive = no rise

LRRC2 (leucine rich repeat containing 2) [SID160748869] → total luciferase, z-score = 0.105; total luciferase, % of control = 84
LRRC2 (leucine rich repeat containing 2) [SID160748870] → total luciferase, z-score = -1.14; total luciferase, % of control = 59.2
LRRC2 (leucine rich repeat containing 2) [SID160748871] → total luciferase, z-score = 2.22; total luciferase, % of control = 126
MLXIP (MLX interacting protein) [SID160732492] → total luciferase, z-score = 0.0486; total luciferase, % of control = 82.9
MLXIP (MLX interacting protein) [SID160732501] → total luciferase, z-score = 1.16; total luciferase, % of control = 105
MLXIP (MLX interacting protein) [SID160732512] → total luciferase, z-score = -1.62; total luciferase, % of control = 49.6
NEFL (neurofilament light chain) [SID160731281] → total luciferase, z-score = 0.687; total luciferase, % of control = 95.5
NEFL (neurofilament light chain) [SID160777954] → total luciferase, z-score = -0.195; total luciferase, % of control = 78
NEFL (neurofilament light chain) [SID160777956] → total luciferase, z-score = -0.152; total luciferase, % of control = 78.9
ZNF77 (zinc finger protein 77) [SID160746838] → total luciferase, z-score = 3.76 (active); total luciferase, % of control = 157
ZNF77 (zinc finger protein 77) [SID160746840] → total luciferase, z-score = 1.35; total luciferase, % of control = 109
ZNF77 (zinc finger protein 77) [SID160746841] → total luciferase, z-score = 0.0855; total luciferase, % of control = 83.6
CADPS (calcium dependent secretion activator) [SID160720437] → total luciferase, z-score = -0.196; total luciferase, % of control = 78
CADPS (calcium dependent secretion activator) [SID160720438] → total luciferase, z-score = 0.519; total luciferase, % of control = 92.2
CADPS (calcium dependent secretion activator) [SID160720439] → total luciferase, z-score = -1.3; total luciferase, % of control = 56
AIG1 (androgen induced 1) [SID160740744] → total luciferase, z-score = 0.638; total luciferase, % of control = 94.6
AIG1 (androgen induced 1) [SID160740745] → total luciferase, z-score = -0.0809; total luciferase, % of control = 80.3
AIG1 (androgen induced 1) [SID160740747] → total luciferase, z-score = 1.84; total luciferase, % of control = 118
C20orf204 (chromosome 20 open reading frame 204) [SID160725021] → total luciferase, z-score = 0.375; total luciferase, % of control = 89.3
C20orf204 (chromosome 20 open reading frame 204) [SID160732983] → total luciferase, z-score = -0.652; total luciferase, % of control = 68.9
C20orf204 (chromosome 20 open reading frame 204) [SID160763428] → total luciferase, z-score = 3.49 (active); total luciferase, % of control = 151
CCDC126 (coiled-coil domain containing 126) [SID160735173] → total luciferase, z-score = 0.596; total luciferase, % of control = 93.7
CCDC126 (coiled-coil domain containing 126) [SID160753790] → total luciferase, z-score = 2.73; total luciferase, % of control = 136
CCDC126 (coiled-coil domain containing 126) [SID160753791] → total luciferase, z-score = 2.04; total luciferase, % of control = 122
CIDEB (cell death inducing DFFA like effector b) [SID160738446] → total luciferase, z-score = -0.499; total luciferase, % of control = 72
CIDEB (cell death inducing DFFA like effector b) [SID160738447] → total luciferase, z-score = -0.815; total luciferase, % of control = 65.7
CIDEB (cell death inducing DFFA like effector b) [SID160738448] → total luciferase, z-score = 1.59; total luciferase, % of control = 113
RPL26 (ribosomal protein L26) [SID160716074] → total luciferase, z-score = -1.55; total luciferase, % of control = 51.1
RPL26 (ribosomal protein L26) [SID160716075] → total luciferase, z-score = -3.31; total luciferase, % of control = 16
RPL26 (ribosomal protein L26) [SID160716076] → total luciferase, z-score = -3.42; total luciferase, % of control = 13.9
SPRR2G (small proline rich protein 2G) [SID160717293] → total luciferase, z-score = 0.42; total luciferase, % of control = 90.2
SPRR2G (small proline rich protein 2G) [SID160717294] → total luciferase, z-score = 2.37; total luciferase, % of control = 129
SPRR2G (small proline rich protein 2G) [SID160717295] → total luciferase, z-score = 0.0414; total luciferase, % of control = 82.7

5 entries from above, sorted by “total luciferase, z-score”, ascending:
RPL26 (ribosomal protein L26) [SID160716076] → total luciferase, z-score = -3.42; total luciferase, % of control = 13.9
RPL26 (ribosomal protein L26) [SID160716075] → total luciferase, z-score = -3.31; total luciferase, % of control = 16
RPL26 (ribosomal protein L26) [SID160716074] → total luciferase, z-score = -1.55; total luciferase, % of control = 51.1
SPRR2G (small proline rich protein 2G) [SID160717293] → total luciferase, z-score = 0.42; total luciferase, % of control = 90.2
CIDEB (cell death inducing DFFA like effector b) [SID160738448] → total luciferase, z-score = 1.59; total luciferase, % of control = 113
